# Laboratory results: article PMC4494937
# The exact form of at least one protein or probe is not confirmed. A negative result means that nothing was seen under these conditions. Tags and fusion partners may be left off the protein sequences shown.
# Molecular target: T1, RNPC1a (UniProt Q9H0Z9)
# T1 sequence (looked up, limits assumed): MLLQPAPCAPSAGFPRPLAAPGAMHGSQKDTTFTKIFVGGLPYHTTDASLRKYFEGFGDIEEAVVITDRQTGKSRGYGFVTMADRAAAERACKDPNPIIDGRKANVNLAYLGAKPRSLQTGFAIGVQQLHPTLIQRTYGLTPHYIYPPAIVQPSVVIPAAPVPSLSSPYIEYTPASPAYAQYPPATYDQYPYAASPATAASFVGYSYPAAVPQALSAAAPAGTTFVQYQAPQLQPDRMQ
# Test: EMSA
# Details: 0.6 and 1.2 ug protein, yeast tRNA; 10 mM HEPES-KOH pH 7.5, 90 mM potassium acetate, 1.5 mM magnesium, 2.5 mM DTT, 40 U RNase inhibitor, 2.5 ug yeast tRNA, 20 ul, 30 C 30 min; 4% agarose gel; recombinant protein; protein details: His; label: none (Gel Red stain); probe letters rebuilt from the primers and the genome
row,Sequence,binding result
1,GGGAGAUGUGUUUCUAUUCAUGUUAAGAUACUACUACAUUUGAAGUGGGCAGAGAACAUCAGAUGAUUGAAAUGUUCGCCCAGGGGUCUCCAGCAACUUUGGAAAUCUCUUUGUAUUUUUACUUGAAGUGCCACUAAUGGACAGCAGAUAUUUUCUGGCUGAUGUUGGUAUUGGGUGUAGGAACAUGAUUUAAAAAAAAACUCUUGCCUCUGCUUUCCCCCACUCUGAGGCAAGUUAAAAUGUAAAAGAUGUGAUUUAUCUGGGGGGCUCAGGUAUGGUGGGGAAGUGGAUUCAGGAAUCUGGGGAAUGGCAAAUAUAUUAAGAAGAGUAUUGAAAGUAUUUGGAGGAAAAUGGUUAAUUCUGGGUGUGCACCAGGGUUCAGUAGAGUCCACUUCUGCCCUGGAGACCACAAAUCAACUAGCUCCAUUUACAGCCAUUUCUAAAAUGGCAGCUUCAGUUCUAGAGAAGAAAGAACAACAUCAGCAGUAAAGUCCAUGGAAUAGCUAGUGGUCUGUGUUUCUUUUCGCCAUUGCCUAGCUUGCCGUAAUGAUUCUAUAAUGCCAUCAUGCAGCAAUUAUGAGAGGCUAGGUCAUCCAAAGAGAAGACCCUAUCAAUGUAGGUUGCAAAAUCUAACCCCUAAGGAAGUGCAGUCUUUGAUUUGAUUUCCCUAGUAACCUUGCAGAUAUGUUUAACCAAGCCAUAGCCCAUGCCUUUUGAGGGCUGAACAAAUAAGGGACUUACUGAUAAUUUACUUUUGAUCACAUUAAGGUGUUCUCACCUUGAAAUCUUAUACACUGAAAUGGCCAUUGAUUUAGGCCACUGGCUUAGAGUACUCCUUCCCCUGCAUGACACUGAUUACAAAUACUUUCCUAUUCAUACUUUCCAAUUAUGAGAUGGACUGU [ERα 3'UTR probe D],binds
2,GGGAGCUCUAGCACAAUUAUGGGUUACUUCCUUUUUCUUAACAAAAAAGAAUGUUUGAUUUCCUCUGGGUGACCUUAUUGUCUGUAAUUGAAACCCUAUUGAGAGGUGAUGUCUGUGUUAGCCAAUGACCCAGGUGAGCUGCUCGGGCUUCUCUUGGUAUGUCUUGUUUGGAAAAGUGGAUUUCAUUCAUUUCUGAUUGUCCAGUUAAGUGAUCACCAAAGGACUGAGAAUCUGGGAGGGCAAAAAAAAAAAAAAAGUUUUUAUGUGCACUUAAAUUUGGGGACAAUUUUAUGUAUCUGUGUUAAGGAUAUGUUUAAGAACAUAAUUCUUUUGUUGCUGUUUGUUUAAGAAGCACCUUAGUUUGUUUAAGAAGCACCUUAUAUAGUAUAAUAUAUAUUUUUUUGAAAUUACAUUGCUUGUUUAUCAGACAAUUGAAUGUAGUAAUUCUGUUCUGGAUUUAAUUUGACUGGGUUAACAUGCAAAAACCAAGGAAAAAUAUUUAGUUUUUUUUUUUUUUUUUGUAUACUUUUCAAGCUACCUUGUCAUGUAUACAGUCAUUUAUGCCUAAAGCCUGGUG [ERα 3'UTR probe C],no binding
3,GGGAGGAGCUCCCUGGCUCCCACACGGUUCAGAUAAUCCCUGCUGCAUUUUACCCUCAUCAUGCACCACUUUAGCCAAAUUCUGUCUCCUGCAUACACUCCGGCAUGCAUCCAACACCAAUGGCUUUCUAGAUGAGUGGCCAUUCAUUUGCUUGCUCAGUUCUUAGUGGCACAUCUUCUGUCUUCUGUUGGGAACAGCCAAAGGGAUUCCAAGGCUAAAUCUUUGUAACAGCUCUCUUUCCCCCUUGCUAUGUUACUAAGCGUGAGGAUUCCCGUAGCUCUUCACAGCUGAACUCAGUCUAUGGGUUGGGGCUCAGAUAACUCUGUGCAUUUAAGCUACUUGUAGAGACCCAGGCCUGGAGAGUAGACAUUUUGCCUCUGAUAAGCACUUUUUAAAUGGCUCUAAGAAUAAGCCACAGCAAAGAAUUUAAAGUGGCUCCUUUAAUUGGUGACUUGGAGAAAGCUAGGUCAAGGGUUUAUUAUAGCACCCUCUUGUAUUCCUAUGGCAAUGCAUCCUUUUAUGAAAGUGGUACACCUUAAAGCUUUUAUAUGACUGUAGCAGAGUAUCUGGUGAUUGUCAAUUCAUUCCCCCUAUAGGAAUACAAGGGGCACACAGGGAAGGCAGAUCCCCUAGUUGGCAAGACUAUUUUAACUUGAUACACUGCAGAUUCAGAUGUGCUGAAAGCUCUGCCUCUGGCUUUCCGGUCAUGGGUUCCAGUUAAUUCAUGCCUCCCAUGGACCUAUGGAGAGCAGCAAGUUGAUCUUAGUUAAGUCUCCCUAUAUGAGGGAUAAGUUCCUGAUUUUUGUUUUUAUUUUUGUGUUACAAAAGAAAGCCCUCCCUCCCUGAACUUGCAGUAAGGUCAGCUUCAGGACCUGUUCCAGU [ERα 3'UTR probe A],binds
4,GGGAGUGGGCACUGUACUUGGAUCUUCCCGGCGUGUGUGUGCCUUACACAGGGGUGAACUGUUCACUGUGGUGAUGCAUGAUGAGGGUAAAUGGUAGUUGAAAGGAGCAGGGGCCCUGGUGUUGCAUUUAGCCCUGGGGCAUGGAGCUGAACAGUACUUGUGCAGGAUUGUUGUGGCUACUAGAGAACAAGAGGGAAAGUAGGGCAGAAACUGGAUACAGUUCUGAGGCACAGCCAGACUUGCUCAGGGUGGCCCUGCCACAGGCUGCAGCUACCUAGGAACAUUCCUUGCAGACCCCGCAUUGCCCUUUGGGGGUGCCCUGGGAUCCCUGGGGUAGUCCAGCUCUUCUUCAUUUCCCAGCGUGGCCCUGGUUGGAAGAAGCAGCUGUCACAGCUGCUGUAGACAGCUGUGUUCCUACAAUUGGCCCAGCACCCUGGGGCACGGGAGAAGGGUGGGGACCGUUGCUGUCACUACUCAGGCUGACUGGGGCCUGGUCAGAUUACGUAUGCCCUUGGUGGUUUAGAGAUAAUCCAAAAUCAGGGUUUGGUUUGGGGAAGAAAAUCCUCCCCCUUCCUCCCCCGCCCCGUUCCCUACCGCCUCCACUCCUGCCAGCUCAUUUCCUUCAAUUUCCUUUGACCUAUAGGCUAAAAAAGAAAGGCUCAUUCCAGCCACAGGGCAGCCUUCCCUGGGCCUUUGCUUCUCUAGCACAAUUAUGGGUUACUUCCUUUUUCUUAACAAAAAAGAAUGUUUGAUUUCCUCUGGGUGA [ERα 3'UTR probe B],binds
5,GGGAGUGGGUACUGGGAGUGAUCACUAACACCAUAGUAAUGUCUAAUAUUCACAGGCAGAUCUGCUUGGGGAAGCUAGUUAUGUGAAAGGCAAAUAGAGUCAUACAGUAGCUCAAAAGGCAACCAUAAUUCUCUUUGGUGCAGGUCUUGGGAGCGUGAUCUAGAUUACACUGCACCAUUCCCAAGUUAAUCCCCUGAAAACUUACUCUCAACUGGAGCAAAUGAACUUUGGUCCCAAAUAUCCAUCUUUUCAGUAGCGUUAAUUAUGCUCUGUUUCCAACUGCAUUUCCUUUCCAAUUGAAUUAAAGUGUGGCCUCGUUUUUAGUCAUUUAAAAUUGUUUUCUAAGUAAUUGCUGCCUCUAUUAUGGCACUUCAAUUUUGCACUGUCUUUUGAGAUUCAAGAAAAAUUUCUAUUCUUUUUUUUGCAUCCAAUUGUGCCUGAACUUUUAAAAUAUGUAAAUGCUGCCAUGUUCCAAACCCAUCGUCAGUGUGUGUGUUUAGAGCUGUGCACCCUAGAAACAACAUAUUGUCCCAUGAGCAGGUGCCUGAGACACAGACCCCUUUGCAUUCACAGAGAGGUCAUUGGUUAUAGAGACUUGAAUUAAUAAGUGACAUUAUGCCAGUUUCUGUUCUCUCACAGGUGAUAAACAAUGCUUUUUGUGCACUACAUACUCUUCAGUGUAGAGCUCUUGUUUUAUGGGAAAAGGCUCAAAUGCCAAAUUGUGUUUGAUGGAUUAAUAUGCCCUUUUGCCGAUGCAUACUAUUACUGAUGUGACUCGGUUUUGUCGCAGCUUUGCUUUGUUUAAUGAAACACACUUGUAAACCUCUUUUGCACUUUGAAAAAGAAUCCAGCGGGAUGCUCGAGCACCUGUAAACAAUU [ERα 3'UTR probe E],no binding
